PubChem BioAssay AID504467 (National Center for Advancing Translational Sciences (NCATS), 2011)
In all, about 330,000 compounds went through this assay and about 7,700 (2.3%) were called active. This list was built around the results that the source calls inconclusive (neither active nor inactive); the mix of calls is not that of the screen. The call rests on the fitted dose curve; in most records, active means well fitted inhibition curve with a large enough effect; inconclusive means small, poorly fitted or top-dose-only effect, or effect the other way; inactive means flat fitted curve, though single readings scatter. Where the call is inconclusive, the potency comes from a doubtful curve fit.

Test: qHTS screen for small molecules that inhibit ELG1-dependent DNA repair in human embryonic kidney (HEK293T) cells expressing luciferase-tagged ELG1; further: nearly all actives have a fitted effect of over 55% in size
Details: HEK293T ELG1-luciferase reporter, luminescence, 16 h, DNA damage induced by 5-fluorouridine; activity change, negative = inhibition: at 46.1 µM (top of the series)
Outline: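 HEK293T cells expressing luciferase-tagged ELG1 (2,000/well) received 5-Fluorouridine plus compound or DMSO for 16 hr at 37 °C. Luciferase was read by ONE-Glo luminescence after 30 min at room temperature.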
On the % scale 0 is the no-effect control and ±100 the full control effect; potency means the concentration at half of the fitted maximal effect.

Structure (SMILES)	Potency	activity change, negative = inhibition
CCOc1ccc(S(=O)(=O)Nc2ccc(O)c(Sc3ncn[nH]3)c2)cc1	inconclusive: 29.1 µM [inhibitor, single point]	
O=S(=O)(c1ccccc1)N1CCN(S(=O)(=O)c2ccc(F)cc2)CC1		inactive: -18.9%
O=C(COc1cccc2c1CCNC2=O)Nc1ccc(Cl)cc1	inconclusive: 25.9 µM [activator, single point]	
O=C1/C(=C/c2ccco2)SC(=S)N1c1cccnc1	inconclusive: 5.8 µM [activator, partial curve, poor fit]	
COc1cccc(C(=O)Nc2ccc3c(c2)C(=O)c2ccccc2C3=O)c1	inconclusive: 5.8 µM [activator, partial curve]	
CN(Cc1ccccc1)C(=O)c1cc(-c2ccc(Br)cc2)on1	inconclusive: 25.9 µM [activator, single point]	
CN(C)C1CCN(Cc2cc(COCc3ccccc3)c3cccnc3c2O)C1 (centres undefined)	inconclusive: 1.16 µM [inhibitor, partial curve, poor fit]	
NC(=O)CC(NC(=O)c1ccccc1)c1ccc(N2CCN(c3ccccc3)CC2)c([N+](=O)[O-])c1 (centres undefined)	inconclusive: 29.1 µM [inhibitor, single point]	
COc1cccc(N=Cc2ccc(O)cc2O)c1	inconclusive: 18.4 µM [activator, single point]	
Cc1ccc(CNS(=O)(=O)c2ccc(CN3C(=O)c4cccnc4C3=O)s2)o1		inactive: 21.2%
CCNc1nc(NCc2ccccc2)nc(SCC(=O)Nc2ccccc2)n1	inconclusive: 18.4 µM [inhibitor, partial curve]	
N#Cc1c(N)c2ccccn2c1C(=O)c1ccc(Br)cc1	inconclusive: 6.51 µM [inhibitor, full curve, poor fit]	
CCOC(=O)c1cc(CC)sc1NC(=O)COC(=O)c1ccccn1	inconclusive: 0.231 µM [activator, single point]	
COc1ccc(C)cc1NS(=O)(=O)c1ccc2c(c1)n(C)c(=O)n2C	inconclusive: 29.1 µM [activator, single point]	
COc1cc(C2c3c(-c4ccccc4)n[nH]c3C(=O)N2c2ccccc2)ccc1O (centres undefined)		inactive: -12.8%
O=C(c1cc(COc2ccc(F)cc2F)on1)N1CCSCC1	inconclusive: 14.6 µM [activator, partial curve]	
C/C(=N\NC(=O)c1ccccc1)c1ccc(N2CCOCC2)cc1	inconclusive: 18.4 µM [activator, single point]	
COc1cc(/C=C(/C(=O)O)c2ccc(-c3ccccc3)cc2)cc(OC)c1OC		inactive: -21.9%
COc1ccc(NC(=O)c2c(-c3c(Cl)cccc3Cl)noc2C)c(OC)c1	active: 23.1 µM	
N#CC1(c2ccc(NC(=O)c3ccccc3F)cc2)CCCC1	inconclusive: 2.31 µM [activator, partial curve]	
CCCCOc1ccc2c(c1)C(=O)c1cc(O)ccc1-2	inconclusive: 16.4 µM [activator, partial curve]	
O=[N+]([O-])c1ccc(Sc2n[nH]c(-c3ccccc3)n2)nc1	inconclusive: 23.1 µM [activator, partial curve]	
CCOc1ccc(CCNC(=O)COC(=O)c2sccc2C)cc1OCC		inactive: -28.1%

Structure (SMILES)	Potency	activity change, negative = inhibition
COC(=O)Nc1ccc(S(=O)(=O)N2CCC(C(=O)N3CCC(C)CC3)CC2)cc1	inconclusive: 16.4 µM [inhibitor, single point]	
CCOc1ccc(S(=O)(=O)N(C)c2ccc(OCC(=O)N3c4ccc(C)cc4C4CN(C)CCC43)cc2)cc1 (centres undefined)		inactive: -10.7%
CCOC(=O)C1(Cc2cccc(Cl)c2)CCCN(C(=O)c2cc(C)[nH]n2)C1 (centres undefined)		inactive: -0.409%
COc1ccc(/C=N/Nc2ncnc3scc(-c4ccccc4)c23)cc1OC	active: 18.4 µM	
Cc1cccc(NC(=O)Nc2cccc(F)c2)n1	inconclusive: 8.2 µM [activator, partial curve]	
Cc1nc(SCC(=O)NCCN2C(=O)CSC2=O)nc(C)c1C		inactive: 12.1%
Cc1c(C(=O)OCC(=O)N2CCCCC2C)oc2ccccc12 (centres undefined)	inconclusive: 20.6 µM [activator, partial curve]	
Nc1nccnc1C(=O)OCC(=O)C12CC3CC(CC(C3)C1)C2		inactive: 0%
CCC(C)Sc1ccc([C@H]2N[C@@](C)(C(=O)OC)[C@H]3C(=O)N(C)C(=O)[C@@H]23)cc1OC (some centres undefined)		inactive: 16.3%
COc1ccc(S(=O)(=O)N2CCCN(Cc3cccc(F)c3)CC2)cc1		inactive: -3.06%
CC1Cc2nc(SCC(=O)Nc3ccc(F)cc3)n(C)c(=O)c2S1 (centres undefined)		inactive: -15.5%
COc1cc(C=O)ccc1OCc1c(C)noc1C	inconclusive: 18.4 µM [activator, partial curve, poor fit]	
O=C(COn1nnc2ccccc21)N1CCN(Cc2ccccc2)CC1	inconclusive: 16.4 µM [activator, partial curve]	
CC(C)CCn1nnnc1CN1CCN(C(c2ccccc2)c2ccccc2)CC1	inconclusive: 23.1 µM [inhibitor, single point]	
C#CCOCCOCCOCCNc1nc(N2CCN(C(=O)CCCCCCCCCCNC(=O)[C@H]([C@@H](C)CC)n3cc(CCCCN=C(N)N)nn3)CC2)nc(N2CCN(C(=O)CCCCCCCCCCNC(=O)[C@H](CCCCN)n3cc(C[C@@H](C)CC)nn3)CC2)n1	inconclusive: 31.6 µM [inhibitor, single point]	
O=C(NC1=NCCS1)Nc1ccccc1	inconclusive: 7.31 µM [activator, partial curve]	
COC(=O)Cc1ccc(NC(=S)N2CCN(c3cc(Cl)ccc3C)CC2)cc1	inconclusive: 18.3 µM [inhibitor, partial curve]	
CCOc1ccc(N2C(=O)CC(N)C2=O)cc1 (centres undefined)		inactive: 13.1%
CCOC(=O)C1(CCc2ccccc2)CCN(Cc2ccc(O)cc2)CC1		inactive: 0.828%
Cc1onc(-c2ccccc2Cl)c1C(=O)N1CCN(C/C=C/c2ccccc2)CC1	inconclusive: 23.1 µM [inhibitor, single point]	
COc1cccc(OCC(O)CO)c1 (centres undefined)		inactive: 5.24%
COc1ccc2c(c1)CC/C(=C\C=C\c1ccccc1OC)C2=O	inconclusive: 6.51 µM [activator, single point]	
COc1ccc(OC)c(-n2c(-c3cnccn3)n[nH]c2=S)c1	inconclusive: 1.16 µM [inhibitor, partial curve, poor fit]	

Structures from the list above that contain two or more sulfur atoms:
Structure (SMILES)	Potency	activity change, negative = inhibition
CCOc1ccc(S(=O)(=O)Nc2ccc(O)c(Sc3ncn[nH]3)c2)cc1	inconclusive: 29.1 µM [inhibitor, single point]	
O=S(=O)(c1ccccc1)N1CCN(S(=O)(=O)c2ccc(F)cc2)CC1		inactive: -18.9%
O=C1/C(=C/c2ccco2)SC(=S)N1c1cccnc1	inconclusive: 5.8 µM [activator, partial curve, poor fit]	
Cc1ccc(CNS(=O)(=O)c2ccc(CN3C(=O)c4cccnc4C3=O)s2)o1		inactive: 21.2%
Cc1nc(SCC(=O)NCCN2C(=O)CSC2=O)nc(C)c1C		inactive: 12.1%
CC1Cc2nc(SCC(=O)Nc3ccc(F)cc3)n(C)c(=O)c2S1 (centres undefined)		inactive: -15.5%

(more compounds)

Structure (SMILES)	Potency	activity change, negative = inhibition
COc1ccc(CCNC(=O)c2cc(-c3ccncc3)nc3c(Cl)cccc23)cc1OC	inconclusive: 18.3 µM [inhibitor, single point]	
CCN(c1ccccc1)S(=O)(=O)c1ccc(C(=O)Nc2nnc(COC)o2)cc1	inconclusive: 18.4 µM [inhibitor, partial curve, poor fit]	
O=S(=O)(c1ccccc1)c1nc(NC2CC2)sc1Cl	inconclusive: 29.1 µM [inhibitor, single point]	
O=C(Nc1ccc(C(=O)O)cc1)Nc1cccc([N+](=O)[O-])c1		inactive: 10.7%
CC1CCCN(S(=O)(=O)c2cc(C(=O)NCc3ccco3)ccc2Cl)C1 (centres undefined)	inconclusive: 5.17 µM [inhibitor, single point]	
COc1cc(SC)ccc1C(=O)NCCCOC(C)C	inconclusive: 3.66 µM [activator, partial curve]	
O=C(Oc1cccc(NC(=O)c2ccco2)c1)c1cccc(S(=O)(=O)N2CCCC2)c1	inconclusive: 9.2 µM [activator, partial curve]	
CCOC(=O)Cn1nc(/C=C/c2ccc(C(C)C)cc2)ccc1=O	inconclusive: 20.6 µM [activator, partial curve]	
O=C(O)CCC(=O)N1N=C(c2cccs2)CC1c1cn(-c2ccccc2)nc1-c1ccccc1 (centres undefined)	inconclusive: 20.6 µM [activator, partial curve, poor fit]	
CC1CN(C(=O)CN2C(=O)NC3(CCCCCC3)C2=O)CC(C)O1 (centres undefined)		inactive: 1.58%
O=C(O)c1ccc(/C=N/NC(=O)c2cc3c(ccc4ccccc43)o2)cc1		inactive: -5.36%
CC(=O)N1c2ccc(S(=O)(=O)N3CCCC(C(=O)NCc4ccccc4Cl)C3)cc2CC1C (centres undefined)	inconclusive: 29.1 µM [inhibitor, single point]	
COc1cc(CC(=O)Nc2ccc3nc(C)sc3c2)cc(OC)c1OC	inconclusive: 20.6 µM [inhibitor, partial curve]	
CC(C)(C)c1ccc(-c2nc(C#N)c(NCc3ccncc3)o2)cc1	inconclusive: 3.66 µM [activator, single point]	
N=c1n(CC(=O)c2ccc(Br)cc2)c2ccccc2n1Cc1ccccc1	inconclusive: 16.4 µM [inhibitor, single point]	
Cc1cc(N2CCOCC2)nc2ccc(NC(=O)CCC(=O)N3CCN(c4ccccc4)CC3)cc12	inconclusive: 29.1 µM [inhibitor, single point]	
Cc1cc(C(=O)NCCC2=CCCCC2)no1	inconclusive: 29.1 µM [activator, single point]	
COc1ccc(-n2nc(C(=O)NCC(=O)NCCC3=CCCCC3)c3ccccc3c2=O)cc1	active: 16.4 µM	
Cc1nn(-c2ccccc2)c(C)c1Cc1ccc(O)cc1	inconclusive: 8.2 µM [activator, partial curve, poor fit]	
O=C1C(SCCO)=C(SCCO)C(=O)c2ccccc21	inconclusive: 35.5 µM [inhibitor, single point]	
CC[n+]1c(/C=C/C=C/N(C(C)=O)c2ccccc2)sc2ccccc21		inactive: -12.6%
c1ccc(Cc2nc3ccccc3o2)cc1		inactive: 23.7%
COc1cccc(NC(=O)CCC(=O)Nc2ccc3nc(N4CCOCC4)cc(C)c3c2)c1		inactive: -23.7%
